# The campaign covered roughly 580,000 compounds. About 6,100 (1.1%) were called active. Another 15% or so got no clear call; they are omitted. The call rests on the fitted dose curve; in most records, active means well fitted inhibition curve with a large enough effect; inconclusive means small, poorly fitted or top-dose-only effect, or another doubt; inactive means no such curve, though single readings can be large or run the other way. Only a part is listed here, and it is no random draw. The source gives no active or inactive call for entries shown without one.
# The chains behind the UniProt entries cited, without tags or fusion partners. Where a name states a change or a piece, a line headed by the entry shows the natural chain unless it says otherwise.
# UniProt P18054: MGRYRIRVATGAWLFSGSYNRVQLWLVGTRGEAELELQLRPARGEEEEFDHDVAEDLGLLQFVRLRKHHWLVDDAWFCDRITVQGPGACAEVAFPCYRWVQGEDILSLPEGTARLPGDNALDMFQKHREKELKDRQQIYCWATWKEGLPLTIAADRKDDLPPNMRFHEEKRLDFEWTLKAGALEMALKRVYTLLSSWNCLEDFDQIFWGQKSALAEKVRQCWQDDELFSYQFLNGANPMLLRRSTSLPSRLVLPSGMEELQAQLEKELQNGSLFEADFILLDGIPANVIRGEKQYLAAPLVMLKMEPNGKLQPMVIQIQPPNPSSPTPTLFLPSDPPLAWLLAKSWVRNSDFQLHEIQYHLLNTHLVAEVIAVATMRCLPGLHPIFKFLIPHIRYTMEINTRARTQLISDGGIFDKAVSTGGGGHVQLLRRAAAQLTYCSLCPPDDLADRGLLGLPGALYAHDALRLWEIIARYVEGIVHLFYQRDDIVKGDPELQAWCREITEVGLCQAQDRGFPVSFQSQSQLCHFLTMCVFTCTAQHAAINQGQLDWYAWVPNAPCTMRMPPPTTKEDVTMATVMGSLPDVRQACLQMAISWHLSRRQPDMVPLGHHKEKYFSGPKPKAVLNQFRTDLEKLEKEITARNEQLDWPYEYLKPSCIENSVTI
# Biological target: Polyunsaturated fatty acid lipoxygenase ALOX12 (Homo sapiens) (UniProt P18054)
# Assay: Primary qHTS assay for inhibitors of human arachidonate 12S-lipoxygenase (ALOX12): Round 2
# Conditions: purified 12hLO, xylenol orange hydroperoxide absorbance; activity change, negative = inhibition: at 0.00344 µM (top of the series) unless noted
# Procedure, shortened: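 Hydroperoxide product was detected by ferrous iron/xylenol orange as the 573 to 405 nm absorbance ratio. Arachidonic acid at 40 uM (final) was turned over for 30 min at room temperature by 150 nM human 12hLO, pH 7.0 Hepes buffer, after 15 min compound preincubation.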
# On the % scale 0 is the no-effect control and ±100 the full control effect; potency means the concentration at half of the fitted maximal effect.
SMILES,Potency,"activity change, negative = inhibition"
COc1cccc(-c2nccc3c(=O)cc(N4CCOCC4)oc23)c1,active: 44.7 µM,
Fc1ccc(-n2nnc(-c3nccs3)n2)cc1,active: 11.2 µM,
Cc1ccc(Nc2c(F)cccc2Cl)c(CC(=O)O)c1,,1.87%
Cc1ccc(CN2C(=O)NC3(CCCN(C(=O)c4cc5ccccc5[nH]4)C3)C2=O)cc1 (centres undefined),active: 12.6 µM,
COC(=O)C1=C(C)NC(C)=C(C(=O)OCC(C)=O)C1c1ccccc1[N+](=O)[O-] (centres undefined),,21.5%
Fc1ccc(C(c2ccc(F)cc2)N2CCN(C/C=C/c3ccccc3)CC2)cc1,,25.4%
Cn1c(NCCN(CCO)CCCc2ccc([N+](=O)[O-])cc2)cc(=O)n(C)c1=O,,20.7%
CC(C)N1C(=O)S/C(=C/c2cn(CC#N)c3ccccc23)C1=O,active: 4.47 µM,
COc1cccc(-c2n[nH]c(=S)n2Cc2ccco2)c1,active: 17.8 µM,
O=C(O)c1cccc(-n2cccc2/C=C2\NC(=O)N(Cc3ccc(F)cc3)C2=O)c1,active: 39.8 µM,
Cc1cccc(C(=O)O)c1O,,-11.9%
Cn1cc(C(=O)[C@@H]2CCc3nc[nH]c3C2)c2ccccc21,,23.7%
CC(=O)Oc1ccc(C)cc1,,-28.1%
CCOC(=O)N1CCN(Cc2ccc(O)c3ncccc23)CC1,active: 25.1 µM,
CC1(C)CCC(C)(C)c2cc(NC(=O)c3ccc(C(=O)O)cc3)ccc21,,22.5%
N[C@@H](Cc1cc(I)c(Oc2cc(I)c(O)c(I)c2)c(I)c1)C(=O)O,,17.4%
CNCc1ccccc1,,0.364%
COc1cc(O)c(C(=O)c2ccccc2)cc1S(=O)(=O)O,,49.2%
O=C(CCc1ccccc1)NNC(=S)NC(=O)c1ccc(Cl)cc1,active: 12.6 µM,
CN1C(=O)CC(c2ccccc2)C1=O (centres undefined),,7.07%
Cc1cccc(-c2noc([C@@H]3Cc4nc[nH]c4CN3C(=O)NC3CCCCC3)n2)c1,active: 12.6 µM,

SMILES,Potency,"activity change, negative = inhibition"
CN(C)CCN(Cc1ccccc1)c1ccccn1,,-5.68%
C=C1C(=C/C=C2\CCC[C@]3(C)[C@@H]([C@H](C)/C=C/[C@@H](O)C4CC4)CC[C@@H]23)C[C@@H](O)C[C@@H]1O,,-11.5%
CCCN(CCC)S(=O)(=O)c1ccc(C(=O)O)cc1,,4.32%
CCN(CC)C(=O)c1cccc(C)c1,,-28.9%
CC(C)(C)NCC(O)COc1ccc(NC(=O)NC2CCCCC2)cc1 (centres undefined),,-9.43%
CC(=O)Oc1c(C)c(C)c2c(c1C)CC[C@@](C)(CCC[C@H](C)CCC[C@H](C)CCCC(C)C)O2,,47.7%
Oc1cccc(Nc2nc(-c3ccccc3)nc3ccccc23)c1,active: 39.8 µM,
O=C(O)CCCCC(=O)O,,21.6%
CC(O)C(=O)O (centres undefined),,-33.2%
NC(=S)N/N=C/c1cccnc1,,-21.7%
OC(CN1CCC(Cc2ccc(F)cc2)CC1)c1ccc(Cl)cc1 (centres undefined),,-12.2%
FC(F)(F)c1ccccc1-c1nc(NCc2cccnc2)c2ccccc2n1,active: 44.7 µM,
CC(=O)Oc1ccccc1C(=O)O,,12.9%
N#Cc1c(SCCN2CCOCC2)nc(N2CCCCC2)c2c1CCCC2,active: 0.794 µM,
COc1ccc(CN2CCNC(=O)C2CC(=O)NCCC2=CCCCC2)c(F)c1 (centres undefined),active: 11.2 µM,
CC1=C(/C=C/C(C)=C/C=C/C(C)=C/C(=O)O)C(C)(C)CCC1,,-15.2%
COc1cc(C(=O)NCCCCCC(=O)O)cc(OC)c1OC,,-24.5%
Nc1nnnn1-c1ccccc1,,21.1%
Cc1ncc(CO)c(CO)c1O,,-5.85%
CC(=O)Oc1ccc(C(=C2CCCCC2)c2ccc(OC(C)=O)cc2)cc1,,-12.8%
CC(=O)NC1(C)CCN(Cc2cccc(-c3cccc(Cl)c3)c2)C1 (centres undefined),active: 39.8 µM,

SMILES,Potency,"activity change, negative = inhibition"
O=C(c1ccc(F)cc1Cl)N1CCC2(CC1)NC(=O)N(c1ccccc1Cl)N2,active: 1.41 µM,
N[C@@H]1CONC1=O,,24.5%
CN(CCOc1ccccc1)C(=O)c1cc(-c2ccco2)nc2ccccc12,active: 31.6 µM,
N[C@@H](Cc1c[nH]c2ccc(O)cc12)C(=O)O,,-8.04%
C[N+](C)(C)CCCCCCCCCC[N+](C)(C)C,,2.15%
COc1ccc2c(c1)c1ccc3c(c1n2C)C(=O)C=CC3=O,active: 0.708 µM,
CN1CCC(Nc2ncc3ncnc(Nc4ccc(F)c(Cl)c4)c3n2)CC1,,-0.789%
O=C1C(c2[nH]c3ccccc3c2O)=Nc2ccccc21,,4.16%
Nc1ccc(S(=O)(=O)Nc2cnc3ccccc3n2)cc1,,49.7%
COC(=O)N[C@H](C(=O)N[C@@H](Cc1ccccc1)[C@@H](O)CN(Cc1ccc(-c2ccccn2)cc1)NC(=O)[C@@H](NC(=O)OC)C(C)(C)C)C(C)(C)C,,19.9%
CC(C)(C)c1ccc(C(=O)CCCN2CCC(OC(c3ccccc3)c3ccccc3)CC2)cc1,,27.8%
CC(Cc1ccccc1)=NNS(=O)(=O)c1ccc([N+](=O)[O-])cc1,active: 20 µM,
COc1cccc(C(c2sc3nc(C)nn3c2O)N2CCc3ccccc3C2)c1 (centres undefined),active: 31.6 µM,
COc1cc(OC)c(C=NNC(=S)NC23CC4CC(CC(C4)C2)C3)c(OC)c1,active: 12.6 µM,
CCN1/C(=C\c2ccc3cc(C)ccc3[n+]2CC)Sc2cc(C)c(C)cc21,active: 25.1 µM,
Cc1cc(O)c(C(C)C)cc1Cl,,-9.49%
CO/N=C(\C(=O)O)c1csc(NC(=O)CCl)n1,,-21.8%
Cc1cccc([C@H]2[C@@H]3C=CCC[C@@H]3C(=O)N2Cc2ccccc2)c1,active: 28.2 µM,
CCOc1cc(N2CCOCC2)c(OCC)cc1NC(=O)CSc1ncccc1C(=O)O,active: 11.2 µM,
CCOC(=O)[C@H](CCc1ccccc1)N[C@@H](C)C(=O)N(CC(=O)O)C1Cc2ccccc2C1,,15.8%
COc1cc2nc(Cl)nc(N)c2cc1OC,,14.9%

# Single entries from the results shown:
# activity change, negative = inhibition with COC(=O)C1=C(C)NC(C)=C(C(=O)OCC(C)=O)C1c1ccccc1[N+](=O)[O-] (centres undefined) reads 21.5%
# activity change, negative = inhibition with C[N+](C)(C)CCCCCCCCCC[N+](C)(C)C reads 2.15%

# Later entries

SMILES,Potency,"activity change, negative = inhibition"
CC[C@H](C)C(=O)O[C@H]1C[C@@H](C)C=C2C=C[C@H](C)[C@H](CC[C@@H]3C[C@@H](O)CC(=O)O3)[C@H]21,,27.6%
Clc1ccc(C(Cn2ccnc2)OCc2ccc(Sc3ccccc3)cc2)c(Cl)c1 (centres undefined),,-8.82%
CN(C)CCOC(c1ccccc1)c1ccc(Br)cc1 (centres undefined),,-12.6%
COC(=O)C1=C(C)NC(C)=C(C(=O)OCCCN2CCC(c3ccccc3)(c3ccccc3)CC2)C1c1cccc([N+](=O)[O-])c1 (centres undefined),,25.1%
Cc1cccc(C)c1NC(=O)CN(CC(=O)O)CC(=O)O,,9.3%
COC(=O)c1cc(Cl)ccc1NS(=O)(=O)C(F)(F)F,,-16.3%
Oc1cccc2[nH]ccc12,,3.48%
CO/N=C(/C(=O)N[C@@H]1C(=O)N2C(C(=O)[O-])=C(C[n+]3ccn4ncccc43)CS[C@H]12)c1nsc(N)n1,,-10.2%
CN(C)[C@@H]1C(=O)C(C(=O)NCN2CCCC2)=C(O)[C@@]2(O)C(=O)C3=C(O)c4c(O)cccc4[C@@](C)(O)C3C[C@@H]12 (some centres undefined),,-13.9%
O=C(Cc1ccccc1)NC(=S)Nc1ccc(OC(F)F)cc1,active: 35.5 µM,
CCc1ccccc1NC(=S)/N=C(\N)Nc1nc(C)c2cc(C)ccc2n1,active: 35.5 µM,
COc1cc(C2CC(=O)N3CN(c4cccc(Cl)c4)CSC3=C2C#N)ccc1O (centres undefined),active: 17.8 µM,
NCc1ccccc1Sc1ccccc1CO,,-46%
CC(=O)N[C@@H](CS)C(=O)O,,-39.6%
CC(C)CCCC(C)N (centres undefined),,-11.5%
CN(C)CCn1nnnc1SCC1=C(C(=O)O)N2C(=O)[C@@H](NC(=O)Cc3csc(N)n3)[C@H]2SC1,,60.1%
COc1cccc(C(=O)/C(C#N)=C\c2ccccc2C(F)(F)F)c1,active: 39.8 µM,
CCCCCC(=O)O[C@]1(C(C)=O)CC[C@H]2[C@@H]3CCC4=CC(=O)CC[C@]4(C)[C@H]3CC[C@@]21C,,19.2%
CNCCCC12CCC(c3ccccc31)c1ccccc12,,13.3%
O=C(c1cccc(Cl)c1)N1CCC(c2nn(-c3ccc(Cl)cc3)c(=O)[nH]2)CC1,active: 14.1 µM,
CCN(CC)C(=O)/C(C#N)=C/c1cc(O)c(O)c([N+](=O)[O-])c1,,-7.97%

# Another view of part of the listing above:
SMILES | Potency | activity change, negative = inhibition
Fc1ccc(C(c2ccc(F)cc2)N2CCN(C/C=C/c3ccccc3)CC2)cc1 |  | 25.4%
Cn1c(NCCN(CCO)CCCc2ccc([N+](=O)[O-])cc2)cc(=O)n(C)c1=O |  | 20.7%
